Laboratory results taken from publication PMC4970767.
These are yes or no findings as the source states them, for the method shown. Binding seen in cells or lysates may run through a third protein. Some binding calls cover weakened binding; strength is not graded here.

The chains behind the UniProt entries cited, without tags or fusion partners. Residues count along the entry.
UniProt P20029, residues 20-655: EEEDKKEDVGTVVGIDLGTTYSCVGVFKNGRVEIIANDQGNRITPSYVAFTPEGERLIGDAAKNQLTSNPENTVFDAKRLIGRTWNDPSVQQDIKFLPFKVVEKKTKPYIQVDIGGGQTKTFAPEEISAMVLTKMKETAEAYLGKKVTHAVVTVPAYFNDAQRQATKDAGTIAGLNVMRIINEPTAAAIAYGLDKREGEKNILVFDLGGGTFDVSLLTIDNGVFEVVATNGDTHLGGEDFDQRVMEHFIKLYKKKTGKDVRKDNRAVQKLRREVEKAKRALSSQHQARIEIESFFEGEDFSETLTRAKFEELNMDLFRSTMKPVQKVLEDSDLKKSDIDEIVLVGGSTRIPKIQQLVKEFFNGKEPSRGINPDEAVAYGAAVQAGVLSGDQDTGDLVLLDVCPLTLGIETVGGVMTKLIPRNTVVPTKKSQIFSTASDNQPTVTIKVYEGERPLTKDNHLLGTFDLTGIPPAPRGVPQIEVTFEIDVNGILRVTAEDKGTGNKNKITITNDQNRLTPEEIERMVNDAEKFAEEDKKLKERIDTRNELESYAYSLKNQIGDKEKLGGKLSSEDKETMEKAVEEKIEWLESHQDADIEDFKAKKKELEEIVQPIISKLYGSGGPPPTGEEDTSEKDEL
UniProt P11021, residues 19-654: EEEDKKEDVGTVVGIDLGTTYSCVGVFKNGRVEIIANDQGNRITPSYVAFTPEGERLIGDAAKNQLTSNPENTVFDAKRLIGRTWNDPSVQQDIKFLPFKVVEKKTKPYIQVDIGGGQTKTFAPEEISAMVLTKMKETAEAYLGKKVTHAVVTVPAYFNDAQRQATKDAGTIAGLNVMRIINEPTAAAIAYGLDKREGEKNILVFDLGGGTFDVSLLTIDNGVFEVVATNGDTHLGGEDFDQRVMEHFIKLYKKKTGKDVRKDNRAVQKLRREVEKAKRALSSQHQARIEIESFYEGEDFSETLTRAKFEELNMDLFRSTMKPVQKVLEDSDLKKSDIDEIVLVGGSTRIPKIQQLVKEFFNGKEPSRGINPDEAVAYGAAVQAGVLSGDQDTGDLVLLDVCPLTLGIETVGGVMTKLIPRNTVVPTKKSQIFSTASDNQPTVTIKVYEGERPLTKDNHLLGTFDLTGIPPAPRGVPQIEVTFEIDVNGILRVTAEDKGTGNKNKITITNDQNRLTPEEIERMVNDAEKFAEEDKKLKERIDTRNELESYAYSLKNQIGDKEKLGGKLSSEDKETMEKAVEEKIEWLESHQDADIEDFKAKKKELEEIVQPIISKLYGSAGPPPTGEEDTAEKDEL
UniProt P26361: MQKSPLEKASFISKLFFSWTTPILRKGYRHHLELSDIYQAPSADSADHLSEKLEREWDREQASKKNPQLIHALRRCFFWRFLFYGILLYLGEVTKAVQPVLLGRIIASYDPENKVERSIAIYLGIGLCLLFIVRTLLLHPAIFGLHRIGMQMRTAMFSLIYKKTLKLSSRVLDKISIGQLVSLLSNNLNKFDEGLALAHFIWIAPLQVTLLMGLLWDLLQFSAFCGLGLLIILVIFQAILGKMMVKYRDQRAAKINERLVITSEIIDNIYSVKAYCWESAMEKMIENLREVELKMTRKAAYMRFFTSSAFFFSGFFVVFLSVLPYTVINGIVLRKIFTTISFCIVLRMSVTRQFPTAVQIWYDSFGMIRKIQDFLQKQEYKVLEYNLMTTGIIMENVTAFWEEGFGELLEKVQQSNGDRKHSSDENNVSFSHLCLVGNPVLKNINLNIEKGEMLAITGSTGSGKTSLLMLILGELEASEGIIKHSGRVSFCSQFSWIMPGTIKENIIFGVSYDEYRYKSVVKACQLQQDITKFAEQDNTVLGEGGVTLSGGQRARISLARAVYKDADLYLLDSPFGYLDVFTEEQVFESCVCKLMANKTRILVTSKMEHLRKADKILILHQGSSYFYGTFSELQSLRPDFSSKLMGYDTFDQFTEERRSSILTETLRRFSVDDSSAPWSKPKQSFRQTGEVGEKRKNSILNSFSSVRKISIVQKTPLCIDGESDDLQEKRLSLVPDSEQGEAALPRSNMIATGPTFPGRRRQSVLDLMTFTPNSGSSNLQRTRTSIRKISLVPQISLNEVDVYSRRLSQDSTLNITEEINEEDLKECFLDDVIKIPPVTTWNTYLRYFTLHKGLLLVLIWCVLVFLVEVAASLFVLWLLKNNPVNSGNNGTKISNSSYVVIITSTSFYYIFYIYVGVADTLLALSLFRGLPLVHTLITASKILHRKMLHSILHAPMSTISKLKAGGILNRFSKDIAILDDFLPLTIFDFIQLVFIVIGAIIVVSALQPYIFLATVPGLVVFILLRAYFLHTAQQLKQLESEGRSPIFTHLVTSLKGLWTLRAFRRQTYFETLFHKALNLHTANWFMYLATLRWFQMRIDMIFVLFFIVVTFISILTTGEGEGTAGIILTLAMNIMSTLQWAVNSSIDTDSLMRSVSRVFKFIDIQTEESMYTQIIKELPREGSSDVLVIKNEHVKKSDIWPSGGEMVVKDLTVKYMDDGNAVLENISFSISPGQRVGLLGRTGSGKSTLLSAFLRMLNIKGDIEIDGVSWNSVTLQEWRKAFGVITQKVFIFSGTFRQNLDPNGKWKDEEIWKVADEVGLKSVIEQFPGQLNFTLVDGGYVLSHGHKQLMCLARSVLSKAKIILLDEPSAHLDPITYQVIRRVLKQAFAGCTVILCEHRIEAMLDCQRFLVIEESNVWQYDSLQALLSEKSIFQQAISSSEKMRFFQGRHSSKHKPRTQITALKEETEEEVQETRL
UniProt P21796: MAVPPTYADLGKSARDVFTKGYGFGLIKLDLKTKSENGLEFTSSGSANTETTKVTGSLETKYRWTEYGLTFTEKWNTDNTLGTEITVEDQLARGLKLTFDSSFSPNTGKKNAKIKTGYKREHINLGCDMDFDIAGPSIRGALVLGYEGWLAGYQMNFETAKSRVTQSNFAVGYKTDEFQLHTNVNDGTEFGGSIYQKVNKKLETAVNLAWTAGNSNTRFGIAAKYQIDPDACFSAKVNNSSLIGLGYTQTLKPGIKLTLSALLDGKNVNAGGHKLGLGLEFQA

Experiments:
[1] = molecular target: Grp78 (Bip), mouse testis (mouse (endogenous in testis)) (UniProt P20029); experiment: co-IP; mouse testis lysate (400 ug protein, RIPA lysis buffer with 1% NP-40, 0.15 M NaCl, pH 7.4), precleared with normal rabbit serum, antibody overnight at room temperature, Protein A/G PLUS-agarose, Western blot
[2] = molecular target: Grp78 (Bip), NT2 cells (human (endogenous in NT2)) (UniProt P11021); experiment: co-IP; NT2 human germ cell tumor cell lysate, reciprocal immunoprecipitation, Protein A/G PLUS-agarose, Western blot

Cystic fibrosis transmembrane conductance regulator (CFTR), mouse testis (from UniProt P26361 1-1476)
binding [1]: binds

VDAC1, NT2 cells (from UniProt P21796 1-283)
binding [2]: binds
